Reference: patent US9717748B2, “Compositions and methods for treating an infection” (CMPD LICENSING, LLC, priority 2015, dated 2017)

System: Mycoplasma pneumoniae
Assay: Expected efficacy of antibiotic agents
Conditions: Gram: n/a

## O=C(O)c1cn(C2CC2)c2cc(N3CCNCC3)c(F)cc2c1=O [Ciprofloxacin]
  Expected efficacy against Mycoplasma pneumoniae: yes
